# Measurements published in the supplement of paper PMC12889115.
# This is one part of the list. These are raw signals, not scaled to a control.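 In the initial screen, polymyxin B was used at a concentration that permeabilizes Salmonella's outer membrane but not its inner membrane. Maximum growth was set by DMSO wells with or without polymyxin B. Since plates varied, data were ranked per plate, and compounds giving the lowest OD600 advanced as hits.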
# System: Salmonella enterica serovar Typhimurium SL1344
# Assay: bacterial growth OD600 after 18 h with compound and polymyxin B; higher = more bacterial growth (less inhibition)
# Conditions: 50 µM, Mueller-Hinton broth
SMILES,bacterial growth OD600 (polymyxin B 1 µg/mL),bacterial growth OD600 (polymyxin B 0.75 µg/mL)
CC(C)CC(=O)Nc1ccnn1C1CCN(Cc2ccc(CO)o2)CC1,0.93,
O=C(CCC1(Cc2ccccc2)CCC(=O)N1)NCc1cnn(-c2ccccc2)n1 (centres undefined),,0.735
CC(C)N1CCN(C(=O)CC(c2cccc(O)c2)c2ccccc2Cl)CC1 (centres undefined),1.02,
Cc1ccccc1C1CCCN(Cc2nc(CC3CC3)no2)C1 (centres undefined),0.858,
CSc1ccc(CNC(=O)CCCn2nnnc2CN2CCC(C)CC2)cc1,0.801,
O=C1O[C@@H]2CN(Cc3ccc(C#CCCO)cc3)C[C@@H]2N1C1CCCC1,0.888,
Cc1ccc2c(c1)CN(CCNC(=O)c1ccccc1C(F)(F)F)CC(C)O2 (centres undefined),,0.686
COC(=O)C1CCN(C(=O)c2cn(Cc3cccc4ccccc34)nn2)CC1,0.814,
CCNC(=O)N1CCC2(CCCN(Cc3ccc(F)cc3)C2=O)C1 (centres undefined),1.12,

# At a glance, some entries already given.
SMILES,bacterial growth OD600 (polymyxin B 1 µg/mL),bacterial growth OD600 (polymyxin B 0.75 µg/mL)
Cc1ccccc1C1CCCN(Cc2nc(CC3CC3)no2)C1 (centres undefined),0.858,
CSc1ccc(CNC(=O)CCCn2nnnc2CN2CCC(C)CC2)cc1,0.801,
